In article PMC7840181:
These are yes or no findings as the source states them, for the method shown. Binding seen in cells or lysates may run through a third protein. Binding can be weak; no strength is given. Where a sequence is shown, tags or fusion partners need not be part of it.

Sequences of proteins named here, by UniProt entry; tags and fusion partners are left off. A change or cut given only in a name is not applied to a line headed by its entry.
UniProt C0H571: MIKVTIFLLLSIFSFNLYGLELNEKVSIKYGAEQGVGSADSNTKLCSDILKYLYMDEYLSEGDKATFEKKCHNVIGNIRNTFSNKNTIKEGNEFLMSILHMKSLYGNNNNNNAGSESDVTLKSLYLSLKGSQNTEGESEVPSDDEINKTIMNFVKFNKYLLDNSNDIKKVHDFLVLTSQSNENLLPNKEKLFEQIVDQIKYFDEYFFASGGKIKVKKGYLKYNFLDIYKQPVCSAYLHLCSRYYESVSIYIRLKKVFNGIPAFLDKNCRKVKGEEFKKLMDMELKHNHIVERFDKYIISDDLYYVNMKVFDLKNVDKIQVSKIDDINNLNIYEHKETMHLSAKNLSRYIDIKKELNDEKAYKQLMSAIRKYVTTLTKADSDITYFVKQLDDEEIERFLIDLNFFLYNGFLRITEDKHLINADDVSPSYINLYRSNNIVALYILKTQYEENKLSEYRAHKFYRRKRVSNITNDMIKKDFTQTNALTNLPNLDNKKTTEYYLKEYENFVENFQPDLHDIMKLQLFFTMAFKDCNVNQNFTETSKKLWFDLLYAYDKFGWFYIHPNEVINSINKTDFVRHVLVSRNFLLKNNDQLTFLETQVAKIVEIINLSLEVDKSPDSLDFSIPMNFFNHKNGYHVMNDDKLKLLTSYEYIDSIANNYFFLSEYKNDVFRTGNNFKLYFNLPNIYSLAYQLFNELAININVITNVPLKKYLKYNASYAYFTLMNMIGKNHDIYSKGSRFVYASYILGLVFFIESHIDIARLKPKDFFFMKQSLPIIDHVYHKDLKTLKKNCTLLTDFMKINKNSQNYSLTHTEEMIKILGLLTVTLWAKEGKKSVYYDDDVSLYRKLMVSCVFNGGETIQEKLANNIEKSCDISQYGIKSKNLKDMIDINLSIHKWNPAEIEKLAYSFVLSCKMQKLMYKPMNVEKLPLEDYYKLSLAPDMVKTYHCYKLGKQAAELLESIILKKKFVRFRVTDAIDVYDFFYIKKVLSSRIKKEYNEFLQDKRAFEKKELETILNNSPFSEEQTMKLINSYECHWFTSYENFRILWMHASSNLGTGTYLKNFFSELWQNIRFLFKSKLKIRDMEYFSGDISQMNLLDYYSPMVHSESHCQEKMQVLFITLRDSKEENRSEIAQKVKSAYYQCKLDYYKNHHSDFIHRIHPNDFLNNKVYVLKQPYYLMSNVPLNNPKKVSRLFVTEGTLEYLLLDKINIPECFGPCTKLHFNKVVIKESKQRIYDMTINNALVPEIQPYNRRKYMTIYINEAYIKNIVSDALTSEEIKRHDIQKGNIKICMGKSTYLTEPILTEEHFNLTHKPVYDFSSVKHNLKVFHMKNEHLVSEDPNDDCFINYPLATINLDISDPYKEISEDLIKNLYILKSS

Molecular target: T1, CLAG3-tv1 (CLAG3 with C-terminal 3xFLAG-3xHA-His8-Strept II tag) (Plasmodium falciparum)
T1 sequence: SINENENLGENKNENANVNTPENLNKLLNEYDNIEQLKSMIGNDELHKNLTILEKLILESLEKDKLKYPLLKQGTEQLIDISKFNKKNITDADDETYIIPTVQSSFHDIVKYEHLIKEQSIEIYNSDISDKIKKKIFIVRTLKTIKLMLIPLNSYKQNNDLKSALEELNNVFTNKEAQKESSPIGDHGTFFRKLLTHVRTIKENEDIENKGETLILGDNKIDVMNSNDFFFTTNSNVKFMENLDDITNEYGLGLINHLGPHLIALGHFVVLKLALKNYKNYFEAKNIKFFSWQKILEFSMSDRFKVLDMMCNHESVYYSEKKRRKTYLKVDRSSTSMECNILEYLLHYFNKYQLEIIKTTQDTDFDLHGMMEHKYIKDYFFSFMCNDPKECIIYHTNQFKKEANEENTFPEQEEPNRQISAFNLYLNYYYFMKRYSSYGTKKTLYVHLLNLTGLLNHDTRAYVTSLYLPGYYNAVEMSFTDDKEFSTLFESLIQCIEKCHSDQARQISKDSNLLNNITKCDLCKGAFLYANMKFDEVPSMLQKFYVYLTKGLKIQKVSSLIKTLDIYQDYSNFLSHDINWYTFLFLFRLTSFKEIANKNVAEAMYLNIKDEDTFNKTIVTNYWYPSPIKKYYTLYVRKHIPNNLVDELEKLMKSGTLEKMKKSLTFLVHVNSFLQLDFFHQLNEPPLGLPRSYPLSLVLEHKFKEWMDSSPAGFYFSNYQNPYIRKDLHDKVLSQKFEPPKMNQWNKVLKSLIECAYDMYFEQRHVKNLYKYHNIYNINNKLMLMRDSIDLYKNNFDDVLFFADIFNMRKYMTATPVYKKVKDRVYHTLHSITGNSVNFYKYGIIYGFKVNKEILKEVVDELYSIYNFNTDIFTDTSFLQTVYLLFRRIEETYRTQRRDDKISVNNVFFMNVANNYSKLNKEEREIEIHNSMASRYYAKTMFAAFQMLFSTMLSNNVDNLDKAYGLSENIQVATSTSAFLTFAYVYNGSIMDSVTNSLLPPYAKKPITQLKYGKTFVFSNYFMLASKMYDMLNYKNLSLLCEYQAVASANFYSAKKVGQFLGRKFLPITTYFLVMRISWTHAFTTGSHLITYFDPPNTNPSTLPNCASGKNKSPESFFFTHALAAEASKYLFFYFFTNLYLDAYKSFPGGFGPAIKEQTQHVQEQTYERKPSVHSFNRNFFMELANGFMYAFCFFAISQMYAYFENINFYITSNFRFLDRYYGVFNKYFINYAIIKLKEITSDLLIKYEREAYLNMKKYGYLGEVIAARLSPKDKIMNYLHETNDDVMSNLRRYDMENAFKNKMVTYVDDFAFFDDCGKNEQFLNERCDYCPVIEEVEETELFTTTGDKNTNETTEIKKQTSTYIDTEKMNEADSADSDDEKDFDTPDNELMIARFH
Assay: co-IP; tagged CLAG3 as bait on anti-FLAG M2 agarose, clarified freeze-thaw lysate of schizont-infected erythrocytes, 500 mM NaCl, 10 mM Tris pH 7.5, overnight at 4°C, eluted with 3xFLAG peptide; Coomassie-stained gel

For “RhopH2-mVenus (RhopH2 with a monomeric Venus tag at the C-terminus) (from UniProt C0H571)”, the binding was “binds”.
